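Cellular ATP content in NIH 3T3 mouse fibroblasts, measured by luminescence after a 40-hour compound exposure, as a proxy for living cells. Percent change in signal relative to DMSO and tamoxifen controls at the highest tested concentration; more negative values indicate stronger cell killing. Calls come from the fitted titration curve: good fits with full or strong partial effects are active, flat curves inactive, and all other curves inconclusive.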

Values are in %. Common to all entries: at 92.2 µM (top of the series). All entries here are filed as inconclusive. Only part of the assay is shown, chiefly results filed as inconclusive.

* N#CC(Br)Br | activity change -42.98%
* CCCCCCCCCCCCCC(=O)O | activity change -35.37%
* O=[N+]([O-])c1ccc2c3c(cccc13)CC2 | activity change -33.5%
* Nc1cc(Cl)ccc1O | activity change -62.82%
* O=C1C=CC(=O)C=C1 | activity change -69.86%
* Oc1cc(Cl)c(Cl)c(Cl)c1 | activity change -62.08%
* CC(C)=CCC/C(C)=C/C=O | activity change -41.83%
* S=C(NC1CCCCC1)NC1CCCCC1 | activity change -54.52%
* Cc1cc([N+](=O)[O-])ccc1N | activity change -32.34%
* COc1cc(/C=C/C(=O)CC(=O)/C=C/c2ccc(O)c(OC)c2)ccc1O | activity change -34.9%
* Nc1ccc(N=Nc2ccccc2)c(N)n1 | activity change -59.64%
* c1ccc(Nc2ccc(Nc3ccccc3)cc2)cc1 | activity change -47.16%
* O=C(Nc1ccccc1)Nc1ccccc1 | activity change -55.38%
* O=[N+]([O-])c1ccc(O)c([N+](=O)[O-])c1 | activity change -40.1%
* O=Cc1c(Cl)cccc1Cl | activity change -46.54%
* COP(=O)(OC)OC=C(Cl)Cl | activity change -38.04%
* CCOP(=S)(OCC)Oc1ccc([N+](=O)[O-])cc1 | activity change -41.22%
* Nc1ccc(S(=O)(=O)c2ccc(N)cc2)cc1 | activity change -37.17%
* BrCC(Br)(Br)Br | activity change -56.73%
* Nc1ccc(Oc2ccc(N)cc2)cc1 | activity change -31.97%
* Nc1ccccc1C(=O)OCCc1ccccc1 | activity change -45.7%
* CN(C)c1ccc(N(C)C)cc1 | activity change -65.36%
* Nc1ccc([N+](=O)[O-])cc1N | activity change -42.47%
* CO[Si](CCCNCCC[Si](OC)(OC)OC)(OC)OC | activity change 37.39%
* CCCCC(CC)COC(=O)c1ccccc1C(=O)OCC(CC)CCCC (stereo not drawn) | activity change -43.33%
* O=Cc1ccccc1 | activity change -30.47%
* C[C@]12C[C@H](O)[C@H]3[C@@H](CCC4=CC(=O)CC[C@@]43C)[C@@H]1CC[C@@H]2C(=O)CO | activity change -67.53%
* COc1cccc2c1C(=O)c1c(O)c3c(c(O)c1C2=O)C[C@@](O)(C(C)=O)C[C@@H]3O[C@H]1C[C@H](N)[C@H](O)[C@H](C)O1 | activity change -139.2%
* CC(C)(O)C(=O)Nc1ccc([N+](=O)[O-])c(C(F)(F)F)c1 | activity change -34.85%
* CN(C)c1ccc(N=NS(=O)(=O)O)cc1 | activity change -37.53%
* O=C(O)C(Br)CBr (stereo not drawn) | activity change -30.13%
* O=[N+]([O-])c1c(Cl)c(Cl)cc(Cl)c1Cl | activity change -51.11%
* O=c1c(-c2ccc(O)cc2)coc2cc(O)ccc12 | activity change -32.31%
* Cc1cc(N=Nc2ccccc2C)ccc1N | activity change -69.3%
* COC1=CC(=O)O[C@@H](/C=C/c2ccc3c(c2)OCO3)C1 | activity change -53.49%
* C=C(C)OC(C)=O | activity change -54.36%
* O=C(O)/C=C/c1ccc(/C=C/C(=O)O)cc1 | activity change -30.17%
* Cc1ccc(S(=O)(=O)O)cc1C | activity change -58.8%
* O=C1c2ccccc2C(=O)C1(O)O | activity change -41.5%
* O=c1c(O)c(-c2ccc(O)cc2)oc2cc(O)cc(O)c12 | activity change -10.91%
* O=CCCCC=O | activity change -48.65%

5 of the entries, repeated:

For O=[N+]([O-])c1ccc(O)c([N+](=O)[O-])c1 the result was activity change -40.1%.
For Nc1cc(Cl)ccc1O the result was activity change -62.82%.
For c1ccc(Nc2ccc(Nc3ccccc3)cc2)cc1 the result was activity change -47.16%.
For Cc1cc([N+](=O)[O-])ccc1N the result was activity change -32.34%.
For CO[Si](CCCNCCC[Si](OC)(OC)OC)(OC)OC the result was activity change 37.39%.

Source: PubChem BioAssay AID541 (NCATS, 2006).